From US20160052996A1
No constants are given. Whether binding was seen depends on the method and setting. Binding can be weak; no strength is given.

Key:
[1] = target: BKV VP1 (BK virus (BKV), AS strain); test: direct ELISA
[2] = target: BKV VP1 (BK virus (BKV), AS strain); test: direct ELISA, cross-reactivity panel; bar groups labelled 100 nM, 20 nM, 4 nM, 0.8 nM
[3] = target: BKV VP1 (BK virus (BKV), AS strain); test: direct ELISA, antigens coated at 1 µg/mL; bar groups labelled 100 nM, 20 nM, 4 nM, 0.8 nM
[4] = target: BKV VP1 VLP (BK virus (BKV), AS strain); test: as above

Measured: binding

B1: NI-307.25G10 (antibody, V domains shown)
VH: EVQLVESGGGLVQPGGSLRLSCVASGIIFKDYDFHWVRQVKEKGLEWVSAIGTAGDPYYAASVKGRFTVSRENGKNSVYLRMNNVGAGDTALYYCTSGNYFDRGSFRPSAFDMWGQGTMVTVSS
VL: EIVLTQSPGTLSLSPGERATLSCWASQSVSSNYLAWYQHKPGQAPRLLIFRASRRATDIPERFSAGGSGTDFTLTISRLEAEDSAVYYCQEYGSAPPASITFGQGTRLEIK
binds: all assays above

B2: NI-307.26E10 (antibody, V domains shown)
VH: EVQLVESGGGLVLPGGSLRLSCAVSGFTVRNEYMRWARQAPGRGLEWVSVIYRDGQTHHADTVKGRFDVSKDTSKNTMYLQMHNLRVDDTAIYYCARGHYGPWGQGTLVTVSS
VL: DIQMTQSPSTLPASVGDRVTITCRASQSINNWLAWYQQKPGKAPNLLIYDASNLETGVPSRFSGSGSGTEFTLTISSLQPDDFATYYCQQYNSHSHTWTFGQGTKVEIK
binds: all assays above
